In the supplement of paper PMC10338343:
± gives the standard deviation. This is a selection; strong and weak results do not stand in their true shares. Many entries were measured with a wide error.

Key:
[1] = system: MILI (PIWIL2) piRISC loaded with L1MC piRNA (26 nt); experiment: pre-steady-state target cleavage rate (min^-1); MIWI and MILI are mouse PIWI proteins and EfPiwi is from a freshwater sponge; tags in brackets are library labels; higher = faster piRNA-guided slicing of the target; conditions: guide: L1MC piRNA 5'p-UAACUAAAUACUAUGCAAGCUGUAGG
Summary of the method: (§1)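 Cleave-'n-Seq reactions paired 0.1 nM transcribed, DNA-blocked target RNA library with 1 nM active affinity-purified piRISC holding one synthetic guide, plus or minus 500 nM GTSF1 partner protein, in HEPES–potassium acetate buffer at 33 °C for 0–8 or 0–960 min. After sequencing of uncleaved targets and normalisation to depth and weakly complementary targets, the pre-steady-state cleavage rate was taken from a burst-and-steady-state fit. Three trials were pooled, and k3 was capped at 0.0001 min^-1.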

[2] = system: MIWI (PIWIL1) piRISC loaded with L1MC piRNA (30 nt); experiment: as above; conditions: guide: L1MC piRNA 5'p-UAACUAAAUACUAUGCAAGCUGUAGGUCCU
Summary of the method: as §1

[3] = auxiliary factor: none (no GTSF1)
[4] = auxiliary factor: 500 nM mouse GTSF1

Sequence | pre-steady-state target cleavage rate [1, 3] | pre-steady-state target cleavage rate [2, 3] | pre-steady-state target cleavage rate [1, 4] | pre-steady-state target cleavage rate [2, 4]
UCCUGGAUGUCGAAGCAUAGAUAAAUCAAA [g11:g16:cont:t1A] | 0.00019 ± 0.023 | 0.00061 ± 0.01 | – | –
UCCUGGAUGUCCUUCCAUAGUAAUUAGUUA | 0.00043 ± 0.011 | 0.000673 ± 0.0083 | – | –
UCCUGGAUGUCGAACCAUAAGUAUUUAGUUA | 0.000382 ± 0.012 | 0.000172 ± 0.015 | – | –
UCCUGGAUGUCGAACGAUAGAAUUUUGUUA | – | – | 0.0028 ± 0.0077 | 0.00355 ± 0.0076
UCCUGGUACAGCUUGCAUAGUAAAUACAAA | 0.000899 ± 0.0054 | 0.00105 ± 0.0053 | – | –
UCCUGGAUGAGGAUGCAUAGUAUUUACAAA | 0.00109 ± 0.0048 | 0.00128 ± 0.0048 | – | –
UCCUGGAUGUCGAACGUAAGUUUUAAGUUA | 0.000123 ± 0.044 | 0.000124 ± 0.028 | – | –
UCCUGGUACUCCUUGCAUAGUAUUUAGAAA | 0.00086 ± 0.0079 | 0.00131 ± 0.0039 | – | –
UCCUGGAUGUCGAACGUAAGUUUUUAGUUA | 0.000183 ± 0.022 | – | – | 0.000272 ± 0.019
UCCUGGAUGAGCAAGCAUAGUAUUUACAAA | 0.00016 ± 0.02 | 0.000318 ± 0.015 | – | –
UCCUGGAACAGCUACGAUAGUAUUUAGAAA | 0.00036 ± 0.013 | 0.000502 ± 0.01 | – | –
UCCUGGAUGUCCUUCGAUAGUAUUUAGUAA | 0.000512 ± 0.011 | 0.000655 ± 0.011 | – | –
UCCUCCUACAGCUUCGUUAGUAUUUUCAAA | 0.000137 ± 0.018 | 0.000167 ± 0.015 | – | –
UCCUGGAUGUCGAACCAUAGUUUUUAGUUA | 0.000249 ± 0.016 | 0.000305 ± 0.02 | – | –
UCCUGGUACAGCUUGCAAUCAUAAAUCAAA [g14:g24:cont:t1A] | 0.000708 ± 0.011 | 0.00123 ± 0.0079 | – | –
UCCUGGAUGUCGUUGUCAUAGUAUUUAGUUA | 0.00173 ± 0.0045 | 0.00121 ± 0.0081 | – | –
UCCUGGAACAGCUUGCAUACAAUUUACAAA | 0.000184 ± 0.014 | 0.000278 ± 0.014 | – | –
UCCUGGAUGUCGAACGUAUUUAUUUAGUUA | < 0.0001 | – | – | 0.000589 ± 0.011
UCCUGCUACAGCUUGCUAAGUAUUUACAAA | 0.000872 ± 0.006 | 0.000231 ± 0.019 | – | –

Complete entries, quoted from the list:
UCCUGCUACAGCUUGCUAAGUAUUUACAAA is listed with pre-steady-state target cleavage rate [1, 3] = 0.000872 ± 0.006; pre-steady-state target cleavage rate [2, 3] = 0.000231 ± 0.019
UCCUGGUACAGCUUGCAAUCAUAAAUCAAA [g14:g24:cont:t1A] is listed with pre-steady-state target cleavage rate [1, 3] = 0.000708 ± 0.011; pre-steady-state target cleavage rate [2, 3] = 0.00123 ± 0.0079
